Test results: patent US20040267003A1
Results are given in words; binding and its absence hold for the method and conditions named. In cells and extracts the contact can be indirect. A result given as binding can be weak or reduced; the word gives no strength. Sequences can lack the tags named with a protein.

The chains behind the UniProt entries cited, without tags or fusion partners. Where a name states a change or a piece, a line headed by the entry shows the natural chain unless it says otherwise.
UniProt O77681: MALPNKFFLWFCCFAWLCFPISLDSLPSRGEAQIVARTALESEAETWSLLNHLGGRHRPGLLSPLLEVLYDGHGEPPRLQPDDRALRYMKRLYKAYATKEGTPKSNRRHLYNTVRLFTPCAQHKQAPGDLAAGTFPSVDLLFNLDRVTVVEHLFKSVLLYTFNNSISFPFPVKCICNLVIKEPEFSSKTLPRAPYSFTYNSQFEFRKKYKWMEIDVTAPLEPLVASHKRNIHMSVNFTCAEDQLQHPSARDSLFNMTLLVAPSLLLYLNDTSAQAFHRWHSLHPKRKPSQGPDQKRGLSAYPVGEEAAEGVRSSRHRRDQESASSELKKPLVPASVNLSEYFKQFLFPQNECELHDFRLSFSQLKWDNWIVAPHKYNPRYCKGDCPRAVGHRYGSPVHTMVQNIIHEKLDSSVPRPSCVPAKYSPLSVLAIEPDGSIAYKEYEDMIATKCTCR

Target: ovine GDF-9 expressed in 293T cells (20 kd GDF-9 mature peptide) (sheep) (UniProt O77681)
Test: co-immunoprecipitation with anti-FLAG M2 and protein G agarose, Western blot with anti GDF-9 antibodies

binding: binds
B1: oGDF-9B-FLAG (processed ovine GDF-9B with C-terminal 8 amino acid FLAG epitope) (ligand, not shown: small tags and cut ends)
chain: QAGSIASEVPGPSREHDGPESNQCSLHPFQVSFQQLGWDHWIIAPHLYTPNYCKGVCPRVLHYGLNSPNHAIIQNLVSELVDQNVPQPSCVPYKYVPISILLIEANGSILYKEYEGMIAQSCTCR
